Test results reported in the supplement of paper PMC10849652.
The list shows a part of the results.

Sequences of proteins named here, by UniProt entry; tags and fusion partners are left off. A change or cut given only in a name is not applied to a line headed by its entry.
UniProt Q16342: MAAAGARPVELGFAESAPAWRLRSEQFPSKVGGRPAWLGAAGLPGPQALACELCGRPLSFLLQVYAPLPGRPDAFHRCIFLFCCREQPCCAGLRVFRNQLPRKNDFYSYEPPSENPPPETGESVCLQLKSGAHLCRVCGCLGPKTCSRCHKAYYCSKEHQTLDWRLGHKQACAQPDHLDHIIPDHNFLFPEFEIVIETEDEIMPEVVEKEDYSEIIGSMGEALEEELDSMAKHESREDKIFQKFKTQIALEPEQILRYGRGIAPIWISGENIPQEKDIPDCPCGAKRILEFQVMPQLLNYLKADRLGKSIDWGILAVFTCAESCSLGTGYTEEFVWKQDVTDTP
UniProt P18669: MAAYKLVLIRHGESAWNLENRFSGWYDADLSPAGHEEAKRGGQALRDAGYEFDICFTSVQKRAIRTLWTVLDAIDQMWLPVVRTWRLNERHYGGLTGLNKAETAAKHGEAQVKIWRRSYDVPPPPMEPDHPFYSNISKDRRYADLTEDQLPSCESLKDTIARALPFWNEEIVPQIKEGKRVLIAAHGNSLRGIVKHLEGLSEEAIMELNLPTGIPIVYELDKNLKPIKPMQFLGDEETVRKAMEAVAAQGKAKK
UniProt Q15366, whole entry, looked up: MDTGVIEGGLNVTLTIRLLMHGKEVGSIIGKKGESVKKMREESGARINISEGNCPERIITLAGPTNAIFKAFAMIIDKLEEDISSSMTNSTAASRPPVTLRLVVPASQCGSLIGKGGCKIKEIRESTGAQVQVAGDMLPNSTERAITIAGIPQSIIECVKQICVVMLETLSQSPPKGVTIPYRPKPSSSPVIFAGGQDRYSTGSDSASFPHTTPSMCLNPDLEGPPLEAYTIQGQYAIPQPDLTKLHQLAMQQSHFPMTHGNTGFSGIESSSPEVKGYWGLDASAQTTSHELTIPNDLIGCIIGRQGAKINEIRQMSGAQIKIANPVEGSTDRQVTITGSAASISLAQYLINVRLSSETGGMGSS
UniProt O15212, whole entry, looked up: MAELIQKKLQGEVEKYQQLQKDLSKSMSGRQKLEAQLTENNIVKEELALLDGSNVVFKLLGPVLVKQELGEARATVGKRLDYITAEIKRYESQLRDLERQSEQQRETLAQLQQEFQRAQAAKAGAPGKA
UniProt P49585: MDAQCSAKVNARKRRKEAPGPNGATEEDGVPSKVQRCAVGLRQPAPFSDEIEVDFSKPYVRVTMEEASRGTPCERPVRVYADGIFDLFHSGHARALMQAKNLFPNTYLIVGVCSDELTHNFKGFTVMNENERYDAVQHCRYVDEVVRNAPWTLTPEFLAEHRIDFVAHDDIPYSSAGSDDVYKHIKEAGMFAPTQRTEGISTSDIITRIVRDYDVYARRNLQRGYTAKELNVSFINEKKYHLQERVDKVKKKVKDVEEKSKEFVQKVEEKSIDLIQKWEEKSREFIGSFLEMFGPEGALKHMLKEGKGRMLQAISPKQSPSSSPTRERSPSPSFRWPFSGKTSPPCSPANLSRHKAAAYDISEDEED
UniProt Q9NTI5: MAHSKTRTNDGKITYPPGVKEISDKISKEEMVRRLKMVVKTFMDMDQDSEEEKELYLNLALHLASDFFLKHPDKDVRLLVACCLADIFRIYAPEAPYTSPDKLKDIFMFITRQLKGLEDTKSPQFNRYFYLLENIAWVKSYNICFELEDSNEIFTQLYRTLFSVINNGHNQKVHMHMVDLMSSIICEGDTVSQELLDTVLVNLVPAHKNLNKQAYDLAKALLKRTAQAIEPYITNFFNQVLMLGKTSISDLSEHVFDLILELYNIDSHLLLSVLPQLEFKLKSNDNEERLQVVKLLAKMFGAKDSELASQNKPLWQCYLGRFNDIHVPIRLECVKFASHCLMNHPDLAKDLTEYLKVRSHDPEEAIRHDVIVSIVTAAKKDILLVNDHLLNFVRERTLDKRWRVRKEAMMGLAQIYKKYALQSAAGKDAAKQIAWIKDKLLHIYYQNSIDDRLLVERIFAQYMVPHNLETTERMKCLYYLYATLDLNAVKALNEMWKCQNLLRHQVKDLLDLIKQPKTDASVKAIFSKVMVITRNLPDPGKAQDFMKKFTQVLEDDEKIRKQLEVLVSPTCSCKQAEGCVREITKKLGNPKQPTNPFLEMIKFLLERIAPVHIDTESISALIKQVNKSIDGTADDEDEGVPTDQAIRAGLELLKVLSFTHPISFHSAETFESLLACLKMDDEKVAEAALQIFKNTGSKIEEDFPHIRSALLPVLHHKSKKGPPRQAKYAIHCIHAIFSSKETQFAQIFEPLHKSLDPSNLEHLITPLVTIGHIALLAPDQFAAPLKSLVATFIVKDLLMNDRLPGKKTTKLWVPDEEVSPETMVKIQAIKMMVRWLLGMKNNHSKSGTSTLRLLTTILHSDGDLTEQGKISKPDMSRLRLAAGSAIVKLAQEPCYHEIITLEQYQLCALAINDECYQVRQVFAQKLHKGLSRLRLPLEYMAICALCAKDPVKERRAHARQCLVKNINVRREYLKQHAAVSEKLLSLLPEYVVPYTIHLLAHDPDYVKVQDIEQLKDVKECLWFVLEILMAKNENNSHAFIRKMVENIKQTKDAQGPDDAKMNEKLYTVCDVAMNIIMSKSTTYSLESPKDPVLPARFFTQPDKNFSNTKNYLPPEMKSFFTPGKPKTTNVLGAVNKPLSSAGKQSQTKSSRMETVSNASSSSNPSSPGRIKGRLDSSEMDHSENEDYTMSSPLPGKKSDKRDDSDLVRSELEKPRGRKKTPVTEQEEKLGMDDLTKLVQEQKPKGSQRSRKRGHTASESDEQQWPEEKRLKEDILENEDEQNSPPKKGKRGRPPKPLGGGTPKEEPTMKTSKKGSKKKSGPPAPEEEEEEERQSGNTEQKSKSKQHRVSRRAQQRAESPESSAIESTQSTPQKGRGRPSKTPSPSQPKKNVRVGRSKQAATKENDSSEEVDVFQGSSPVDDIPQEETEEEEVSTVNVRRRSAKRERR
UniProt Q99471, whole entry, looked up: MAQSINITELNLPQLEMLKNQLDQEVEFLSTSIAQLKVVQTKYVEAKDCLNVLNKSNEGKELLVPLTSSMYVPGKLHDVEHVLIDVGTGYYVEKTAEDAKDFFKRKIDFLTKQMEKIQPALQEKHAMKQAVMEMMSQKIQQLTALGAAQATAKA
UniProt Q96HS1, whole entry, looked up: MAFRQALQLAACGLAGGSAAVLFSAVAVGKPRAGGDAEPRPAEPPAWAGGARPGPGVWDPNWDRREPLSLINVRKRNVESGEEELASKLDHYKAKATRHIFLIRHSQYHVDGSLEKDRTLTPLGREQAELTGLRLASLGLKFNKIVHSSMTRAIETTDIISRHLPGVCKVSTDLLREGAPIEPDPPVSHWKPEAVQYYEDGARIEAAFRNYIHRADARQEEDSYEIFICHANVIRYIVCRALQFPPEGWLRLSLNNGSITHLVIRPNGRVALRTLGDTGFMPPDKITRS
UniProt O96011: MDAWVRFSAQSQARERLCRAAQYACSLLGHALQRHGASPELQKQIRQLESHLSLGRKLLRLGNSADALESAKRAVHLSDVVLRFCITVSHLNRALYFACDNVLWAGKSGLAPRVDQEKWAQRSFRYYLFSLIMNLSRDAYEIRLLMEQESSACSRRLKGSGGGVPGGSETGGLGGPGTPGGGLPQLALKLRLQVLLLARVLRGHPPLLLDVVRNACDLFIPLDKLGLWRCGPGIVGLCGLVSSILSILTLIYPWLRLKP
UniProt P12955: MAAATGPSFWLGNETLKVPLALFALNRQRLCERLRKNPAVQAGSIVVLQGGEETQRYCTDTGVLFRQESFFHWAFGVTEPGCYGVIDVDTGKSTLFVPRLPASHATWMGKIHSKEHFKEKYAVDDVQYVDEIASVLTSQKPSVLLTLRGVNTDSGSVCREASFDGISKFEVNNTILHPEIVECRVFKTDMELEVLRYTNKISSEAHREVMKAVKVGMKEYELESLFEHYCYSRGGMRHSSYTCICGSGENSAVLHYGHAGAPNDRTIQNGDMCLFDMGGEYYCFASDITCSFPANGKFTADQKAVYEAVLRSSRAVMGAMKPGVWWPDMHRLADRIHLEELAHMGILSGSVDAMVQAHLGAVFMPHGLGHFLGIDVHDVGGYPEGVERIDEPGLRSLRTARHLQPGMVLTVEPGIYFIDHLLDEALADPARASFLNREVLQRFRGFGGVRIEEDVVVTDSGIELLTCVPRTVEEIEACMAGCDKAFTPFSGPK
UniProt Q92968: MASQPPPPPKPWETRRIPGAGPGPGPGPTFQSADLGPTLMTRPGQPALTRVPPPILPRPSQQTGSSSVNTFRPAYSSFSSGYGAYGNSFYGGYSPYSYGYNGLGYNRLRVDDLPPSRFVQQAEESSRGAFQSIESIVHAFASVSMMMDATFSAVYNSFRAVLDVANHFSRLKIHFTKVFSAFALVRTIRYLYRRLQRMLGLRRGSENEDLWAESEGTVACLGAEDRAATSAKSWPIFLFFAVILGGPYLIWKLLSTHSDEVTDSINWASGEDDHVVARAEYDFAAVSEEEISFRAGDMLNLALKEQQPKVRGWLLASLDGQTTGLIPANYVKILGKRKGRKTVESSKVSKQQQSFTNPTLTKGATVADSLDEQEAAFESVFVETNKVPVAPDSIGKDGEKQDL
UniProt P61457: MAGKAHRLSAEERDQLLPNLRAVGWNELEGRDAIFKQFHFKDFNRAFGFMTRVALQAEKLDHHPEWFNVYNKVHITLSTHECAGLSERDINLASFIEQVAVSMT
UniProt O95453: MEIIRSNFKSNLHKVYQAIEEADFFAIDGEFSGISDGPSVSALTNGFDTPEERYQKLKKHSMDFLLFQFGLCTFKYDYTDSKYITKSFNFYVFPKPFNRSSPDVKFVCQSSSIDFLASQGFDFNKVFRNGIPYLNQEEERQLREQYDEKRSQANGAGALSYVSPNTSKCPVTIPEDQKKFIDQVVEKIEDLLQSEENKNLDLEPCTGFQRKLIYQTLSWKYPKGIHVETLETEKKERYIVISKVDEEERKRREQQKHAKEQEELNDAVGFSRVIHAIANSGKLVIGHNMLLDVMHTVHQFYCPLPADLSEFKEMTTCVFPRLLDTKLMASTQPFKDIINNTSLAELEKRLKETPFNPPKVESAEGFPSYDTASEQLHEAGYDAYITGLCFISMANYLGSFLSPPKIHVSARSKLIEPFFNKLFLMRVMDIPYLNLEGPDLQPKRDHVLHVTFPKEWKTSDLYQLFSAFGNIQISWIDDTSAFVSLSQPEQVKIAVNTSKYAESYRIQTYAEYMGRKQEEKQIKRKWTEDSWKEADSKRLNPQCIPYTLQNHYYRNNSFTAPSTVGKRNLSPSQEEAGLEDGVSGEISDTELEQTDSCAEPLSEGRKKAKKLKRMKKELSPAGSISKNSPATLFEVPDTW
UniProt Q8IZL8: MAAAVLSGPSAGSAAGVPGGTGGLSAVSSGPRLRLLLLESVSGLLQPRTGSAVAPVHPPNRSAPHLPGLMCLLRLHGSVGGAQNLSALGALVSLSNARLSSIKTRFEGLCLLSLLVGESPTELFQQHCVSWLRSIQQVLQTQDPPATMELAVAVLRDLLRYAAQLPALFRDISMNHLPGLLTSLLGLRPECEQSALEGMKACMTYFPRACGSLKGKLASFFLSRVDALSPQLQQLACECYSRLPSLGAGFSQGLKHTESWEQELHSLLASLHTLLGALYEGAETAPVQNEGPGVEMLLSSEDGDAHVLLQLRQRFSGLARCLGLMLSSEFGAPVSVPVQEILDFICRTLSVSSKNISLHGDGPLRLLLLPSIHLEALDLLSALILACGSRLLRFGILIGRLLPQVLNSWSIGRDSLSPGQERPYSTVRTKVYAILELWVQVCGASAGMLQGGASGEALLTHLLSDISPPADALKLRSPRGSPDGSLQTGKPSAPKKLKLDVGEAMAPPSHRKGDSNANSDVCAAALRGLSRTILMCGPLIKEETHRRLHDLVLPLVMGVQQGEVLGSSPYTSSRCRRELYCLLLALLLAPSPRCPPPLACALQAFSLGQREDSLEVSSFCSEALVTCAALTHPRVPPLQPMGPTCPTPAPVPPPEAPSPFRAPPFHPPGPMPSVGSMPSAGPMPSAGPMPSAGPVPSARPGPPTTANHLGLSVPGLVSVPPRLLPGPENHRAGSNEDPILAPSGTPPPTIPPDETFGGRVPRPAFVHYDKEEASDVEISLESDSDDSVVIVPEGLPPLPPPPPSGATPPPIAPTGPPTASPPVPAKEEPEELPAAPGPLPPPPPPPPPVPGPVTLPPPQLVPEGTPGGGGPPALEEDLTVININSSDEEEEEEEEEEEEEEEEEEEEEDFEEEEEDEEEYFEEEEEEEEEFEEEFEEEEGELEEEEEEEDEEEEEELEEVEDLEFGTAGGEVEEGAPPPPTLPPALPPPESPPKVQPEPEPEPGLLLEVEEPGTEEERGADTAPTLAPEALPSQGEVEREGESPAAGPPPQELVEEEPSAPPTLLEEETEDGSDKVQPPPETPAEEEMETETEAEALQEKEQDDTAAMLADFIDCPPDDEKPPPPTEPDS
UniProt Q9BUL8: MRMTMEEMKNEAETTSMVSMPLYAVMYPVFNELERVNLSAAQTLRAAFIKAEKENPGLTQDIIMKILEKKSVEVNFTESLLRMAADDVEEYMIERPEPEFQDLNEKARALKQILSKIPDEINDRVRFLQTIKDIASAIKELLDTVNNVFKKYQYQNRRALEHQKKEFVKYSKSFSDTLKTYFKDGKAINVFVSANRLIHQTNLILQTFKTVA

compound: CC(C)(O)CC(=O)NCCn1ccc2ncnc(Nc3ccc(Oc4cccc(C(F)(F)F)c4)c(Cl)c3)c21; assay: log2 fold change, soluble protein after heating vs DMSO (PISA); higher = thermal stabilisation; K562 lysate, 10 uM; active = over 0.2 and 3.5 SD of the protein, either way, in both replicates (recomputed)
Method in brief: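 Following dounce homogenisation of K562 pellets in PBS pH 7.4 with 1 mM MgCl2, crude extract at 1 mg/mL protein was incubated for 30 min with 10 μM compound. Aliquots were then heated for 3 min over 48°C-58°C and pooled, NP-40 was added to 0.5% at 4°C, and soluble protein was recovered as the supernatant at 21,000xg for 90 min. Channel-sum-equalised TMTpro 16plex LC-MS/MS quantified this protein. Each value, from duplicates, is a log-two fold change in thermal stability relative to solvent controls.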

log2 fold change, inactive:
PDCD2 (UniProt Q16342) -0.019, PGAM1 (UniProt P18669) 0.003, PDCD6IP isoform 2 (UniProt Q8WUM4) 0.025, PC (UniProt P11498) 0.001, PCBP2 isoform 3 (UniProt Q15366) 0.022, PCIF1 (UniProt Q9H4Z3) 0.017, PFDN6 (UniProt O15212) 0.024, PCYT1A (UniProt P49585) -0.023, PCBP3 (UniProt P57721) -0.021, PDS5B (UniProt Q9NTI5) -0.049, PEBP1 (UniProt P30086) 0.006, PAXX (UniProt Q9BUH6) 0.015, PFDN5 (UniProt Q99471) -0.006, PGAM5 (UniProt Q96HS1) -0.043, PEX11B (UniProt O96011) -0.02, PFKL isoform 2 (UniProt P17858) -0.052, PEPD (UniProt P12955) -0.061, PEX13 (UniProt Q92968) -0.103, PCBD1 (UniProt P61457) -0.007, PARN (UniProt O95453) -0.042, PARP2 (UniProt Q9UGN5) -0.029, PELP1 (UniProt Q8IZL8) 0.004, PDCD10 (UniProt Q9BUL8) -0.006
